Source: the supplement of paper PMC7661543
The effect of the compound repeats well; differences between the knockouts mostly do not.

Test system: HCC-38
Assay: relative cell number vs DMSO control (72 h) (% of DMSO); higher = less growth inhibition (more cells)
Description: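 QMAP-Seq: a pool of 5 breast cancer cell lines (ZR-75-1, SKBR3, HCC-38, MDA-MB-231, BT-20), each carrying 12 doxycycline-inducible Cas9 sgRNA perturbations (11 knockouts plus non-targeting sgNT), was treated with compounds for 72 h at four 10-fold doses (10 nM-10 uM or 1 nM-1 uM range). Barcodes were amplified and sequenced, and cell number was interpolated from 293T spike-in standard curves. The result is expressed as % of the median of DMSO wells. Two biological replicates.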

CN(C)c1cc(NC(=O)CNC(C)(C)C)c(O)c2c1C[C@H]1C[C@H]3[C@H](N(C)C)C(O)=C(C(N)=O)C(=O)[C@@]3(O)C(O)=C1C2=O [Tigecycline]
Details | relative cell number
sgRNA knockout: sgATF3, 10 nM | 101.3
sgRNA knockout: sgATF3, 100 nM | 109
sgRNA knockout: sgATF3, 1000 nM | 99.7
sgRNA knockout: sgATF3, 10000 nM | 102.1
sgRNA knockout: sgATF4, 10 nM | 91.5
sgRNA knockout: sgATF4, 100 nM | 109
sgRNA knockout: sgATF4, 1000 nM | 85.3
sgRNA knockout: sgATF4, 10000 nM | 122
sgRNA knockout: sgATF6, 10 nM | 97.4
sgRNA knockout: sgATF6, 100 nM | 105
sgRNA knockout: sgATF6, 1000 nM | 105
sgRNA knockout: sgATF6, 10000 nM | 96.1
sgRNA knockout: sgATG7, 10 nM | 91.5
sgRNA knockout: sgATG7, 100 nM | 97.3
sgRNA knockout: sgATG7, 1000 nM | 83.2
sgRNA knockout: sgATG7, 10000 nM | 104
sgRNA knockout: sgERN1, 10 nM | 96.1
sgRNA knockout: sgERN1, 100 nM | 103
sgRNA knockout: sgERN1, 1000 nM | 99.4
sgRNA knockout: sgERN1, 10000 nM | 93.2
sgRNA knockout: sgHSF1, 10 nM | 115
sgRNA knockout: sgHSF1, 100 nM | 78
sgRNA knockout: sgHSF1, 1000 nM | 97.5
sgRNA knockout: sgHSF1, 10000 nM | 109
sgRNA knockout: sgHSF2, 10 nM | 96.9
sgRNA knockout: sgHSF2, 100 nM | 114
sgRNA knockout: sgHSF2, 1000 nM | 101
sgRNA knockout: sgHSF2, 10000 nM | 101
sgRNA knockout: sgKEAP1, 10 nM | 116
sgRNA knockout: sgKEAP1, 100 nM | 89
sgRNA knockout: sgKEAP1, 1000 nM | 124
sgRNA knockout: sgKEAP1, 10000 nM | 115
sgRNA knockout: sgNFE2L2, 10 nM | 89
sgRNA knockout: sgNFE2L2, 100 nM | 109
sgRNA knockout: sgNFE2L2, 1000 nM | 83.2
sgRNA knockout: sgNFE2L2, 10000 nM | 107
sgRNA knockout: sgSLC35F2, 10 nM | 101
sgRNA knockout: sgSLC35F2, 100 nM | 90.7
sgRNA knockout: sgSLC35F2, 1000 nM | 101
sgRNA knockout: sgSLC35F2, 10000 nM | 105
sgRNA knockout: sgXBP1, 10 nM | 93.5
sgRNA knockout: sgXBP1, 100 nM | 120
sgRNA knockout: sgXBP1, 1000 nM | 90.1
sgRNA knockout: sgXBP1, 10000 nM | 109

CC[C@@]1(O)C(=O)OCc2c1cc1n(c2=O)Cc2cc3c(CN(C)C)c(O)ccc3nc2-1 [Topotecan]
Details | relative cell number
sgRNA knockout: sgATF3, 10 nM | 54.8
sgRNA knockout: sgATF3, 100 nM | 20.4
sgRNA knockout: sgATF3, 1000 nM | 11
sgRNA knockout: sgATF3, 10000 nM | 9.67
sgRNA knockout: sgATF4, 10 nM | 59.6
sgRNA knockout: sgATF4, 100 nM | 18.3
sgRNA knockout: sgATF4, 1000 nM | 11
sgRNA knockout: sgATF4, 10000 nM | 9.2
sgRNA knockout: sgATF6, 10 nM | 58.4
sgRNA knockout: sgATF6, 100 nM | 18
sgRNA knockout: sgATF6, 1000 nM | 10.5
sgRNA knockout: sgATF6, 10000 nM | 8.95
sgRNA knockout: sgATG7, 10 nM | 53.7
sgRNA knockout: sgATG7, 100 nM | 20.4
sgRNA knockout: sgATG7, 1000 nM | 12.1
sgRNA knockout: sgATG7, 10000 nM | 7.9
sgRNA knockout: sgERN1, 10 nM | 54.7
sgRNA knockout: sgERN1, 100 nM | 19.3
sgRNA knockout: sgERN1, 1000 nM | 11.3
sgRNA knockout: sgERN1, 10000 nM | 8.45
sgRNA knockout: sgHSF1, 10 nM | 60.8
sgRNA knockout: sgHSF1, 100 nM | 23.2
sgRNA knockout: sgHSF1, 1000 nM | 12.3
sgRNA knockout: sgHSF1, 10000 nM | 6.56
sgRNA knockout: sgHSF2, 10 nM | 53.8
sgRNA knockout: sgHSF2, 100 nM | 24.2
sgRNA knockout: sgHSF2, 1000 nM | 13.6
sgRNA knockout: sgHSF2, 10000 nM | 9.97
sgRNA knockout: sgKEAP1, 10 nM | 57.3
sgRNA knockout: sgKEAP1, 100 nM | 19.8
sgRNA knockout: sgKEAP1, 1000 nM | 8.83
sgRNA knockout: sgKEAP1, 10000 nM | 9.7
sgRNA knockout: sgNFE2L2, 10 nM | 61.54
sgRNA knockout: sgNFE2L2, 100 nM | 18.1
sgRNA knockout: sgNFE2L2, 1000 nM | 11.3
sgRNA knockout: sgNFE2L2, 10000 nM | 7.26
sgRNA knockout: sgSLC35F2, 10 nM | 56.1
sgRNA knockout: sgSLC35F2, 100 nM | 21.2
sgRNA knockout: sgSLC35F2, 1000 nM | 10.1
sgRNA knockout: sgSLC35F2, 10000 nM | 8.89
sgRNA knockout: sgXBP1, 10 nM | 59.4
sgRNA knockout: sgXBP1, 100 nM | 18.8
sgRNA knockout: sgXBP1, 1000 nM | 10.8
sgRNA knockout: sgXBP1, 10000 nM | 7.72

CN1CCN(CCCN2c3ccccc3Sc3ccc(C(F)(F)F)cc32)CC1 [Trifluoperazine]
Details | relative cell number
sgRNA knockout: sgATF3, 10 nM | 101
sgRNA knockout: sgATF3, 100 nM | 99.7
sgRNA knockout: sgATF3, 1000 nM | 104.6
sgRNA knockout: sgATF3, 10000 nM | 74.9
sgRNA knockout: sgATF4, 10 nM | 93.4
sgRNA knockout: sgATF4, 100 nM | 87.8
sgRNA knockout: sgATF4, 1000 nM | 113
sgRNA knockout: sgATF4, 10000 nM | 71
sgRNA knockout: sgATF6, 10 nM | 95.1
sgRNA knockout: sgATF6, 100 nM | 90.5
sgRNA knockout: sgATF6, 1000 nM | 92.3
sgRNA knockout: sgATF6, 10000 nM | 83.8
sgRNA knockout: sgATG7, 10 nM | 105
sgRNA knockout: sgATG7, 100 nM | 91
sgRNA knockout: sgATG7, 1000 nM | 99.7
sgRNA knockout: sgATG7, 10000 nM | 81.5
sgRNA knockout: sgERN1, 10 nM | 88.3
sgRNA knockout: sgERN1, 100 nM | 92.6
sgRNA knockout: sgERN1, 1000 nM | 108
sgRNA knockout: sgERN1, 10000 nM | 82.2
sgRNA knockout: sgHSF1, 10 nM | 75.6
sgRNA knockout: sgHSF1, 100 nM | 104
sgRNA knockout: sgHSF1, 1000 nM | 85.7
sgRNA knockout: sgHSF1, 10000 nM | 76.7
sgRNA knockout: sgHSF2, 10 nM | 88.3
sgRNA knockout: sgHSF2, 100 nM | 95.6
sgRNA knockout: sgHSF2, 1000 nM | 106
sgRNA knockout: sgHSF2, 10000 nM | 74.5
sgRNA knockout: sgKEAP1, 10 nM | 82.1
sgRNA knockout: sgKEAP1, 100 nM | 97.3
sgRNA knockout: sgKEAP1, 1000 nM | 87.4
sgRNA knockout: sgKEAP1, 10000 nM | 91.1
sgRNA knockout: sgNFE2L2, 10 nM | 94.13
sgRNA knockout: sgNFE2L2, 100 nM | 84
sgRNA knockout: sgNFE2L2, 1000 nM | 112
sgRNA knockout: sgNFE2L2, 10000 nM | 70.2
sgRNA knockout: sgSLC35F2, 10 nM | 99.9
sgRNA knockout: sgSLC35F2, 100 nM | 88.4
sgRNA knockout: sgSLC35F2, 1000 nM | 115
sgRNA knockout: sgSLC35F2, 10000 nM | 77.1
sgRNA knockout: sgXBP1, 10 nM | 95.3
sgRNA knockout: sgXBP1, 100 nM | 98.5
sgRNA knockout: sgXBP1, 1000 nM | 115
sgRNA knockout: sgXBP1, 10000 nM | 75

CN1CCc2c(c3ccccc3n2Cc2ccc(C(=O)NO)cc2)C1 [TubastatinA]
Details | relative cell number
sgRNA knockout: sgATF3, 10 nM | 110.1
sgRNA knockout: sgATF3, 100 nM | 88.8
sgRNA knockout: sgATF3, 1000 nM | 97.1
sgRNA knockout: sgATF3, 10000 nM | 67.1
sgRNA knockout: sgATF4, 10 nM | 99.8
sgRNA knockout: sgATF4, 100 nM | 96.5
sgRNA knockout: sgATF4, 1000 nM | 109
sgRNA knockout: sgATF4, 10000 nM | 67.7
sgRNA knockout: sgATF6, 10 nM | 106
sgRNA knockout: sgATF6, 100 nM | 97.6
sgRNA knockout: sgATF6, 1000 nM | 108
sgRNA knockout: sgATF6, 10000 nM | 62.8
sgRNA knockout: sgATG7, 10 nM | 103
sgRNA knockout: sgATG7, 100 nM | 88.5
sgRNA knockout: sgATG7, 1000 nM | 105
sgRNA knockout: sgATG7, 10000 nM | 62.9
sgRNA knockout: sgERN1, 10 nM | 104
sgRNA knockout: sgERN1, 100 nM | 88.9
sgRNA knockout: sgERN1, 1000 nM | 98.8
sgRNA knockout: sgERN1, 10000 nM | 68.3
sgRNA knockout: sgHSF1, 10 nM | 102
sgRNA knockout: sgHSF1, 100 nM | 78
sgRNA knockout: sgHSF1, 1000 nM | 101
sgRNA knockout: sgHSF1, 10000 nM | 81.8
sgRNA knockout: sgHSF2, 10 nM | 103
sgRNA knockout: sgHSF2, 100 nM | 87.3
sgRNA knockout: sgHSF2, 1000 nM | 109
sgRNA knockout: sgHSF2, 10000 nM | 67.6
sgRNA knockout: sgKEAP1, 10 nM | 94.7
sgRNA knockout: sgKEAP1, 100 nM | 89.6
sgRNA knockout: sgKEAP1, 1000 nM | 96
sgRNA knockout: sgKEAP1, 10000 nM | 69.9
sgRNA knockout: sgNFE2L2, 10 nM | 109
sgRNA knockout: sgNFE2L2, 100 nM | 88
sgRNA knockout: sgNFE2L2, 1000 nM | 112
sgRNA knockout: sgNFE2L2, 10000 nM | 59.6
sgRNA knockout: sgSLC35F2, 10 nM | 106
sgRNA knockout: sgSLC35F2, 100 nM | 87.2
sgRNA knockout: sgSLC35F2, 1000 nM | 100
sgRNA knockout: sgSLC35F2, 10000 nM | 69.1
sgRNA knockout: sgXBP1, 10 nM | 111.8
sgRNA knockout: sgXBP1, 100 nM | 90.4
sgRNA knockout: sgXBP1, 1000 nM | 99.9
sgRNA knockout: sgXBP1, 10000 nM | 65.5
